Test results taken from the supplement of paper PMC10849652.
Some of the results follow.

Protein sequences, listed by entry. Tags and fused reporters are not part of them. Lines headed by an entry give the natural chain unless they say otherwise; changes in a name come on top.
UniProt Q7L8L6: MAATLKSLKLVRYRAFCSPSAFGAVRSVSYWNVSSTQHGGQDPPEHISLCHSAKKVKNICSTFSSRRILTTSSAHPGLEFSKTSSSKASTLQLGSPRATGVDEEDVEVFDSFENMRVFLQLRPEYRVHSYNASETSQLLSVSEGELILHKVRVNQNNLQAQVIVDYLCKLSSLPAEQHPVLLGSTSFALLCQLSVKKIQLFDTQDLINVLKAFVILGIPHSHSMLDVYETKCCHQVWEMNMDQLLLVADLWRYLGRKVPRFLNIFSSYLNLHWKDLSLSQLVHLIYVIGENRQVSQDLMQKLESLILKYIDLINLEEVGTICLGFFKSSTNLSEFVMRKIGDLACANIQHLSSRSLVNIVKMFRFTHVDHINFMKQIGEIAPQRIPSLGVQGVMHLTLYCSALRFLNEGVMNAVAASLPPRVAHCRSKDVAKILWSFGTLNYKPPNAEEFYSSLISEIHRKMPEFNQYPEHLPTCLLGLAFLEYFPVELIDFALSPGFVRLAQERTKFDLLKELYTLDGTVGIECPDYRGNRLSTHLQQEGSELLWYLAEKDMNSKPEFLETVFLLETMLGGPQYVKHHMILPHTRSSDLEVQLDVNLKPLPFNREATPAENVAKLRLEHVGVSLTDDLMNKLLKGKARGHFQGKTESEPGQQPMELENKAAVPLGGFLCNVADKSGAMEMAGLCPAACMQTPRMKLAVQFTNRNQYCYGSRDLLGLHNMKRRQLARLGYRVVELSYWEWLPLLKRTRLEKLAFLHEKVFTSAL
UniProt Q9H4M3: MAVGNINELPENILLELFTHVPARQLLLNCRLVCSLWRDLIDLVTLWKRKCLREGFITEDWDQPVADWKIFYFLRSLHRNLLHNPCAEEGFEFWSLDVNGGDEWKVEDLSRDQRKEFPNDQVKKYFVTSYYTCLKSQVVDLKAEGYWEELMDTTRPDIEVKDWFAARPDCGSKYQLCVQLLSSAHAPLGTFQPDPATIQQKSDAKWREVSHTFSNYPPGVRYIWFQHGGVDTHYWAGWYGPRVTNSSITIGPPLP
UniProt Q4L180: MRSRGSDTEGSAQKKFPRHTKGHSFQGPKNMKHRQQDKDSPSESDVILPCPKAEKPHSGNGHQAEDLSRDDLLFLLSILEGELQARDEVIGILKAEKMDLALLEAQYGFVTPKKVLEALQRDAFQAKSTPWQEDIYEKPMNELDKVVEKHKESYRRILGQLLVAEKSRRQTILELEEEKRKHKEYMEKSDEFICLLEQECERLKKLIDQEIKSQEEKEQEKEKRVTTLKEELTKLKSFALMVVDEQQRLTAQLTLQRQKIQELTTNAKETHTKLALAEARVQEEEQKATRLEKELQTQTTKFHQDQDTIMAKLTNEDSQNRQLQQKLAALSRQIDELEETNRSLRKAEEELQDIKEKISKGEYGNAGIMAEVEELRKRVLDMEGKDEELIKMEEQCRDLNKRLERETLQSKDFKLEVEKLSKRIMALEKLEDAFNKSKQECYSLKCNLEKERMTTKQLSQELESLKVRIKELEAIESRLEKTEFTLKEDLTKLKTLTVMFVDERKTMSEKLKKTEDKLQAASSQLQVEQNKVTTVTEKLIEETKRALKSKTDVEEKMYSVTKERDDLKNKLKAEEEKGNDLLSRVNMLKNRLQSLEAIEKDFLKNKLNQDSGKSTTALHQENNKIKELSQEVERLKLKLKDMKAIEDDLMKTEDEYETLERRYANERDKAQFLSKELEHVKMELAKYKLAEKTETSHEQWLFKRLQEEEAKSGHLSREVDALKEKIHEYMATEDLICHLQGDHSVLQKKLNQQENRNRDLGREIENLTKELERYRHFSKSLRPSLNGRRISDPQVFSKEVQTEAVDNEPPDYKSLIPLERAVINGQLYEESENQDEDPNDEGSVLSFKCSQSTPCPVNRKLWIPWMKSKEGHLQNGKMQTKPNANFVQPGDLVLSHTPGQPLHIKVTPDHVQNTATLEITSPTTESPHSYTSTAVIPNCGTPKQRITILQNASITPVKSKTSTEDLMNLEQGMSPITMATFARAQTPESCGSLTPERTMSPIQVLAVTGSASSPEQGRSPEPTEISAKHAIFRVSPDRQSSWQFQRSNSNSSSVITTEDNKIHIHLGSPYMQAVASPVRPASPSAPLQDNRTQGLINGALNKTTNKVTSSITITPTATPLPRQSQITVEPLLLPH
UniProt P16591: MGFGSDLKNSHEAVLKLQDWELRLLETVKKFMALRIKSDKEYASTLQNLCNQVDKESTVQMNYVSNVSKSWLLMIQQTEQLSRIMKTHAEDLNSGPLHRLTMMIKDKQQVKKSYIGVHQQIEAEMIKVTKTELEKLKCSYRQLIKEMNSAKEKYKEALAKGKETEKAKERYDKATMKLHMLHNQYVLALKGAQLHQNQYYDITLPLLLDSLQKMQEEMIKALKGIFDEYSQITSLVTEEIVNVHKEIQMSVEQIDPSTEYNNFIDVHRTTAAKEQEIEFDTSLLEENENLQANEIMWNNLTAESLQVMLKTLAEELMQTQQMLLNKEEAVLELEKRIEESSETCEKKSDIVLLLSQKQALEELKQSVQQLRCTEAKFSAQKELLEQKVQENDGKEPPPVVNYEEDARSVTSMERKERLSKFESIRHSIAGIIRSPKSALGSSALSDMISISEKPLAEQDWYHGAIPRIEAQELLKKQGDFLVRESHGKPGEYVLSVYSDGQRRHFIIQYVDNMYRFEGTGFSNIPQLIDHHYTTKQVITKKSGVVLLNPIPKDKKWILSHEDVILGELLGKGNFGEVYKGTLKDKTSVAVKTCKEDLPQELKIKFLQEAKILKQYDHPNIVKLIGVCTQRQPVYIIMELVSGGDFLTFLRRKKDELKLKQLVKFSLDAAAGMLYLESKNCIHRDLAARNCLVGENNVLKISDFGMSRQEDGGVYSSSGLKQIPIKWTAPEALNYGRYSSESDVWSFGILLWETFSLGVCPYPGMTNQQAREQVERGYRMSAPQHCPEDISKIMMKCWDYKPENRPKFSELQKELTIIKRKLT
UniProt Q9NVK5: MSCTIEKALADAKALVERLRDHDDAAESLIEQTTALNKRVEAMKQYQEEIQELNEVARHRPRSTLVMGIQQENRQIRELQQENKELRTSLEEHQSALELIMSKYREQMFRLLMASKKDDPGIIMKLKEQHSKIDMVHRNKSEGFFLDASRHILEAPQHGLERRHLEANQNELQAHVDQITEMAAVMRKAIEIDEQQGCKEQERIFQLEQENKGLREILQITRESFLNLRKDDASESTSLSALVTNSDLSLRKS
UniProt Q00597: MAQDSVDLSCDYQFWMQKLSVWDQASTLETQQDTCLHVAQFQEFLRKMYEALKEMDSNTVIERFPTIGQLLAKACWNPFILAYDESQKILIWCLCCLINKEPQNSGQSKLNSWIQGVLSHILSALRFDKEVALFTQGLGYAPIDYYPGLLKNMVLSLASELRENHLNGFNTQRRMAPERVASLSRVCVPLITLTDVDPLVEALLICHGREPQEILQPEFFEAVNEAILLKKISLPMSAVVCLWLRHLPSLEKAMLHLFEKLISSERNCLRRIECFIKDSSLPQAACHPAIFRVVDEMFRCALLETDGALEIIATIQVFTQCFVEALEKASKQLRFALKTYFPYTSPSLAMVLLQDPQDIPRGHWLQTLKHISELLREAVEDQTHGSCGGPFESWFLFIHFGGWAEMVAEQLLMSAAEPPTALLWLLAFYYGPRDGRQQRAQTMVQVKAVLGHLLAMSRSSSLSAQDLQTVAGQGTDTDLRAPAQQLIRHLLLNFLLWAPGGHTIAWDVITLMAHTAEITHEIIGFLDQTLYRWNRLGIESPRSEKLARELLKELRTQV
UniProt Q13045: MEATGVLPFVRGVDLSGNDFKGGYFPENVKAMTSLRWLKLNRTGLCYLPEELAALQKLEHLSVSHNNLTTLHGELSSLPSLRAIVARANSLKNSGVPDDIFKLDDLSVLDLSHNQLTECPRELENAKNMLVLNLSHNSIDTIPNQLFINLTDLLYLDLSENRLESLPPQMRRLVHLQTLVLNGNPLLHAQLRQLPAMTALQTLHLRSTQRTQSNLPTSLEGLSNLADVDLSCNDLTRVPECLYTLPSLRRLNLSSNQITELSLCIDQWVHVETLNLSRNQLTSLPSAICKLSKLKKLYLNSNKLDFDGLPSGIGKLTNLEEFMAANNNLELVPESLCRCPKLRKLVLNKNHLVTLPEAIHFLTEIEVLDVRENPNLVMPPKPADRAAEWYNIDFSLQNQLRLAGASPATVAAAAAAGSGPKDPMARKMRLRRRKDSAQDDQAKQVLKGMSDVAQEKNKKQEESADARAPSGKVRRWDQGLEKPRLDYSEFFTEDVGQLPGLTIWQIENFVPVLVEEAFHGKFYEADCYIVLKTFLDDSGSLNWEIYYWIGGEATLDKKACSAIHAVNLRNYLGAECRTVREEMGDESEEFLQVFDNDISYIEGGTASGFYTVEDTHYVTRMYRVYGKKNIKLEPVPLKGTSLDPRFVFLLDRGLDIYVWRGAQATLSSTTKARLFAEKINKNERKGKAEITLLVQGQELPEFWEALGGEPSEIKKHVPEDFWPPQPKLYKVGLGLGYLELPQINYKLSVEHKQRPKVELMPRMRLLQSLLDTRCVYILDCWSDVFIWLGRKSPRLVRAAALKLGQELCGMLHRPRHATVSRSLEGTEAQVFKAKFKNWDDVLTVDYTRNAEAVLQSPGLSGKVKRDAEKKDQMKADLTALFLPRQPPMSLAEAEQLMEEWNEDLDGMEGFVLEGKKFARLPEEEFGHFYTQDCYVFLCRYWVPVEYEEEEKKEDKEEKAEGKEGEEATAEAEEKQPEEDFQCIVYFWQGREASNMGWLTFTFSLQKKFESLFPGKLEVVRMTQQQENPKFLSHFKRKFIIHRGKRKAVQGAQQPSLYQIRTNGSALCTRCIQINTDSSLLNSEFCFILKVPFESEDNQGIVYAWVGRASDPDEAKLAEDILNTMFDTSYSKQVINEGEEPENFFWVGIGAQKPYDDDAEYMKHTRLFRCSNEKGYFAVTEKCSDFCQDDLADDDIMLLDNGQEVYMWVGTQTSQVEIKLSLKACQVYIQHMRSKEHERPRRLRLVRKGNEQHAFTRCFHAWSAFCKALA
UniProt Q9Y4F1: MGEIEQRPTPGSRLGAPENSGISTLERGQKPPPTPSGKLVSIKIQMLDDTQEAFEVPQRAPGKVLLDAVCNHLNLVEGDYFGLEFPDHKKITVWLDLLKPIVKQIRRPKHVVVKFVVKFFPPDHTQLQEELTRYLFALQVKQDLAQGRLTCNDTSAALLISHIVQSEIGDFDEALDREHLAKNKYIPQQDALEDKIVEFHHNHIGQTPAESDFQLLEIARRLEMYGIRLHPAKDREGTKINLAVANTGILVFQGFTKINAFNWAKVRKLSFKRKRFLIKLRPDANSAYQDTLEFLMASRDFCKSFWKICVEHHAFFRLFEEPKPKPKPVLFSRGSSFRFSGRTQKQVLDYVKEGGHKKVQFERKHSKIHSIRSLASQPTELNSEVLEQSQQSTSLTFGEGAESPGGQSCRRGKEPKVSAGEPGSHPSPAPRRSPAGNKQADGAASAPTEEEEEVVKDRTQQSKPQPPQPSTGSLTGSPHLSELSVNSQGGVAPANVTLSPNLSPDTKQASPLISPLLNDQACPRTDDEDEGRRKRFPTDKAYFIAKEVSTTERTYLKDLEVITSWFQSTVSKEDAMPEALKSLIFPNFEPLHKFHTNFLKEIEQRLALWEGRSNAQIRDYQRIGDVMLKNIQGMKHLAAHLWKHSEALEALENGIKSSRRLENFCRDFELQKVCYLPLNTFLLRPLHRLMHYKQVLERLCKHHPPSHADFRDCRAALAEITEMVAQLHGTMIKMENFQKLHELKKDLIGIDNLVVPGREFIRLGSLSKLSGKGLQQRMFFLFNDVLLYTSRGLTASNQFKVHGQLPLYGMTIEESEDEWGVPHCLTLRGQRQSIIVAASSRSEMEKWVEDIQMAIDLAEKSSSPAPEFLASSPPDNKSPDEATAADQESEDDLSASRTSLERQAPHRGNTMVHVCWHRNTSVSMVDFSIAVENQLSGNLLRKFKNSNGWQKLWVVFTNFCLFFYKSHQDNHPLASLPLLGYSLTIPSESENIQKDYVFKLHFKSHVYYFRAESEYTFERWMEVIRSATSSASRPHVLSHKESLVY
UniProt Q96SL8: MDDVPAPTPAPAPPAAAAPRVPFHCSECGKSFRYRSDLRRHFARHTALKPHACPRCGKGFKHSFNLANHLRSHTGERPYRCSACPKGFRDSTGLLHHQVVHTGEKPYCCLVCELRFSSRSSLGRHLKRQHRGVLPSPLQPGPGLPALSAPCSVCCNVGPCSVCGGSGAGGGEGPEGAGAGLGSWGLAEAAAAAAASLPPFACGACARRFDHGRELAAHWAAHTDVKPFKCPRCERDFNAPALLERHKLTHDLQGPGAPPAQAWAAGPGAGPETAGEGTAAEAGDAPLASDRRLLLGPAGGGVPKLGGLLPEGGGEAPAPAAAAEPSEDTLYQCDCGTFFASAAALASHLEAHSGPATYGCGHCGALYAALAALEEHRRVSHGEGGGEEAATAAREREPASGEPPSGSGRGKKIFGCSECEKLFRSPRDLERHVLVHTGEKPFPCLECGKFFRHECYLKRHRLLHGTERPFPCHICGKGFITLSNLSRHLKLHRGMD

What was measured:
Test in all cases: log2 fold change, soluble protein after heating vs DMSO (PISA); higher = thermal stabilisation; K562 lysate, 10 uM; active = over 0.2 and 3.5 SD of the protein, either way, in both replicates (recomputed)
[1] = compound: Cc1cn(-c2cc(NC(=O)c3ccc(C)c(Nc4nccc(-c5cccnc5)n4)c3)cc(C(F)(F)F)c2)cn1 [nilotinib]
Summary of the method: (§1)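 Dounce homogenisation of K562 pellets in PBS pH 7.4 with 1 mM MgCl2 produced a crude extract, used at 1 mg/mL protein. Exposure to 10 μM compound lasted 30 min, and aliquots were then heated for 3 min across 48°C-58°C, pooled and brought to 0.5% NP-40 at 4°C. The supernatant after 21,000xg for 90 min was quantified by TMTpro 16plex LC-MS/MS with channel sums equalised. Duplicate values are given as log-two fold change in thermal stability relative to solvent controls.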

[2] = compound: Cc1nc(Nc2n[nH]c3c2CN(C(=O)N[C@H](CN(C)C)c2ccccc2)C3(C)C)c2sccc2n1
Summary of the method: as §1

[3] = compound: Cc1nc(Nc2ncc(C(=O)Nc3c(C)cccc3Cl)s2)cc(N2CCN(CCO)CC2)n1 [dasatinib]
Summary of the method: as §1

[4] = compound: Cc1ncc(-c2ccnc(Nc3ccc(S(C)(=O)=O)cc3)n2)n1C(C)C
Summary of the method: as §1

[5] = compound: Cn1cc(-c2ccc3c(c2)CCN3C(=O)Cc2cccc(C(F)(F)F)c2)c2c(N)ncnc21
Summary of the method: as §1

[6] = compound: Cn1cc(CNCC2CCN(c3ncc(C(=O)NO)cn3)CC2)c2ccccc21 [quisinostat]
Summary of the method: as §1

[7] = compound: Cn1cncc1[C@@](N)(c1ccc(Cl)cc1)c1ccc2c(c1)c(-c1cccc(Cl)c1)cc(=O)n2C [tipifarnib]
Summary of the method: as §1

[8] = compound: NC(=O)Nc1cc(-c2cccc(F)c2)sc1C(=O)N[C@H]1CCCNC1
Summary of the method: as §1

[9] = compound: NC(=O)c1cnc(N[C@@H]2CCCC[C@@H]2N)nc1Nc1cccc(-n2nccn2)c1
Summary of the method: as §1

[10] = compound: NC1(c2ccc(-c3nc4ccn5c(=O)[nH]nc5c4cc3-c3ccccc3)cc2)CCC1
Summary of the method: as §1

Measured: log2 fold change

FASTKD5 (UniProt Q7L8L6)
inactive: [1] -0.072 | [2] 0.032 | [3] -0.006 | [4] 0.113 | [5] -0.027 | [6] -0.053 | [7] 0.003 | [8] 0.004 | [9] 0.054 | [10] 0.013

FBLL1 (UniProt A6NHQ2)
inactive: [1] 0.006 | [2] -0.015 | [3] -0.048 | [4] -0.101 | [5] 0 | [6] -0.07 | [7] -0.009 | [8] 0.026 | [9] -0.037 | [10] 0

FKBP10 (UniProt Q96AY3)
inactive: [1] -0.035 | [2] 0.205 | [3] -0.072 | [4] -0.048 | [5] -0.049 | [7] -0.023

FMR1 (UniProt Q06787)
inactive: [1] -0.061 | [2] 0.019 | [3] -0.038 | [4] 0.026 | [5] 0.07 | [6] 0.028 | [7] -0.011 | [8] 0.018 | [9] -0.027 | [10] 0.004

FBRS (UniProt J3KNZ9)
inactive: [1] -0.047 | [2] 0.032 | [3] -0.024 | [4] -0.091 | [5] 0.081 | [6] -0.078 | [7] -0.049 | [8] 0.097 | [10] 0.025

FARS2 (UniProt O95363)
inactive: [1] 0.383 | [2] -0.228 | [4] -0.226 | [6] 0.021 | [7] 0.151 | [8] -0.002 | [9] 0.126 | [10] 0.012

FARP2 (UniProt H7C3M7)
inactive: [1] 0.05 | [2] -0.08 | [3] -0.037 | [4] 0.031 | [5] 0.089 | [6] -0.086 | [7] -0.201 | [8] -0.055 | [10] -0.047

FBXO44 isoform 2 (UniProt Q9H4M3)
inactive: [1] -0.005 | [2] -0.198 | [3] 0.024 | [4] -0.085 | [5] -0.112 | [7] -0.056 | [9] 0.013 | [10] 0.081

FBXO28 (UniProt Q9NVF7)
inactive: [9] 0.061

FCGR2B (UniProt P31994)
inactive: [6] -0.057 | [8] 0.18

FLT4 (UniProt P35916)
inactive: [3] -0.202 | [5] 0.013 | [9] 0.162 | [10] 0.106

FHAD1 isoform 3 (UniProt B1AJZ9)
inactive: [3] 0.059 | [5] -0.015 | [9] 0.042 | [10] -0.168

FBXW8 (UniProt Q8N3Y1)
inactive: [1] -0.011 | [2] 0.178 | [4] 0.21 | [7] 0.28 | [9] 0.039 | [10] -0.216

FILIP1L (UniProt Q4L180)
inactive: [3] 0.163 | [5] 0.14 | [9] -0.218

FKRP (UniProt Q9H9S5)
inactive: [3] -0.125 | [5] -0.016 | [6] -0.098 | [8] 0.031 | [9] -0.209 | [10] 0.001

FANCF (UniProt Q9NPI8)
inactive: [6] -0.013 | [8] 0.3

FAT1 (UniProt Q14517)
active: [6] 0.572
inactive: [8] -0.105 | [9] -0.017 | [10] -0.071

FER isoform 3 (UniProt P16591)
inactive: [6] -0.266 | [9] -0.057

FAXDC2 (UniProt Q96IV6)
inactive: [3] 0.002 | [5] 0.08 | [6] -0.129 | [8] 0.055 | [9] 0.225 | [10] 0.129

FEM1A (UniProt Q9BSK4)
inactive: [1] -0.218 | [2] -0.141 | [4] 0.058 | [7] 0.019 | [9] -0.058 | [10] 0.044

FGFR1OP2 isoform 2 (UniProt Q9NVK5)
inactive: [6] 0.101 | [8] -0.06

FANCC (UniProt Q00597)
inactive: [6] 0.001 | [8] 0.142 | [9] -0.281 | [10] -0.452

FASTKD3 (UniProt Q14CZ7)
inactive: [1] -0.155 | [2] -0.047 | [4] -0.067 | [7] -0.128 | [9] -0.011

FEM1C (UniProt Q96JP0)
inactive: [3] -0.162 | [5] 0.016

FLII isoform 2 (UniProt Q13045)
inactive: [9] 0.022

FDPS, A0A087WVN4
inactive: [9] 0.023

7 consecutive records from above, quoted:
FER isoform 3 (UniProt P16591)
inactive: [6] -0.266 | [9] -0.057

FAXDC2 (UniProt Q96IV6)
inactive: [3] 0.002 | [5] 0.08 | [6] -0.129 | [8] 0.055 | [9] 0.225 | [10] 0.129

FEM1A (UniProt Q9BSK4)
inactive: [1] -0.218 | [2] -0.141 | [4] 0.058 | [7] 0.019 | [9] -0.058 | [10] 0.044

FGFR1OP2 isoform 2 (UniProt Q9NVK5)
inactive: [6] 0.101 | [8] -0.06

FANCC (UniProt Q00597)
inactive: [6] 0.001 | [8] 0.142 | [9] -0.281 | [10] -0.452

FASTKD3 (UniProt Q14CZ7)
inactive: [1] -0.155 | [2] -0.047 | [4] -0.067 | [7] -0.128 | [9] -0.011

FEM1C (UniProt Q96JP0)
inactive: [3] -0.162 | [5] 0.016

Following part:

FLNA (UniProt H0Y5C6)
inactive: [3] 0.212 | [5] 0.069 | [9] 0.11 | [10] -0.005

FARP1 isoform 2 (UniProt Q9Y4F1)
inactive: [3] -0.047 | [5] -0.034 | [6] 0.026 | [8] -0.006

FMNL3 (UniProt Q8IVF7)
inactive: [9] -0.031

FBXW2 (UniProt Q9UKT8)
inactive: [3] 0.216 | [5] 0.016 | [6] -0.101 | [8] 0.048

FAM83H (UniProt Q6ZRV2)
inactive: [9] 0.15

FIZ1 (UniProt Q96SL8)
inactive: [1] -0.061 | [2] -0.225 | [4] 0.05 | [7] 0.064 | [9] 0.011

FBXW11 (UniProt Q9UKB1)
inactive: [3] -0.068 | [5] 0.019 | [6] 0.021 | [8] -0.02 | [9] -0.095 | [10] 0.141

FBXL19 (UniProt Q6PCT2)
inactive: [6] -0.027 | [8] 0.118 | [10] 0.13

FMR1 isoform 9 (UniProt Q06787)
inactive: [3] 0.146 | [5] -0.013 | [6] 0.206 | [8] -0.065 | [9] -0.119 | [10] 0.15

FASN, A0A0U1RRG3
inactive: [9] 0.06

FANCA (UniProt O15360)
inactive: [3] -0.168 | [5] -0.038 | [6] -0.047 | [8] -0.042

FMR1NB (UniProt Q8N0W7)
inactive: [6] -0.352 | [8] 0.106

FEN1 (UniProt I3L3E9)
inactive: [1] -0.144 | [2] -0.043 | [4] 0.083 | [7] -0.105 | [9] 0.117

FBXL4 (UniProt Q9UKA2)
inactive: [1] 0.005 | [2] 0.185 | [4] 0.049 | [7] 0.019 | [10] 0.097

FMC1 (UniProt Q96HJ9)
inactive: [3] 0.106 | [5] 0.008 | [6] 0.058 | [8] -0.035 | [9] 0.021 | [10] -0.024
